Earlier results in patent publication US9993454B2, “Solid nanoparticle formulation of water insoluble pharmaceutical substances with reduced Ostwald ripening” (Luminus Biosciences, Inc., priority 2006, dated 2018).
Some of these results come from one statement about several compounds together.

Conditions: oral

For `CC(=O)O[C@@]12CO[C@@H]1C[C@H](O)[C@@]1(C)C(=O)[C@H](O)C3=C(C)[C@@H](OC(=O)[C@H](O)[C@@H](NC(=O)OC(C)(C)C)c4ccccc4)C[C@@](O)([C@@H](OC(=O)c4ccccc4)[C@H]21)C3(C)C` [docetaxel], the “absorption when administered orally” value is given as “less than 1%”.
